In the supplement of paper PMC4604168 (melanoma cell lines):
The other results are listed elsewhere or left out. Many values rest on one well or one pass, so single values are uncertain.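 Cells were imaged in 1,536-well plates, and nuclei stained with an antibody against cleaved PARP were counted against all DNA-stained nuclei to give the apoptosis fraction. Screening doses were chosen to leave most cells alive, and resting and induced cleaved-PARP levels differ strongly between cell lines.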

Tests used:
Experiment in all cases: cleaved PARP positive nuclei fraction relative to DMSO control; melanoma cells; higher = more apoptosis
Conditions in all cases: library dose: low library concentration; 72 h
501Mel = system: 501Mel
A101D = system: A101D
A2058 = system: A2058
C32 = system: C32
CBRC008 = system: CBRC008 (line from a melanoma biopsy)
CBRC014 = system: CBRC014 (line from a melanoma biopsy)
CBRC016 = system: CBRC016 (line from a melanoma biopsy)
CBRC017 = system: CBRC017 (line from a melanoma biopsy)

| Structure (SMILES) | cleaved PARP positive nuclei fraction (501Mel) | cleaved PARP positive nuclei fraction (A101D) | cleaved PARP positive nuclei fraction (A2058) | cleaved PARP positive nuclei fraction (C32) | cleaved PARP positive nuclei fraction (CBRC008) | cleaved PARP positive nuclei fraction (CBRC014) | cleaved PARP positive nuclei fraction (CBRC016) | cleaved PARP positive nuclei fraction (CBRC017) |
| --- | --- | --- | --- | --- | --- | --- | --- | --- |
| Cn1cc(C2=C(c3cn(C4CCN(Cc5ccccn5)CC4)c4ccccc34)C(=O)NC2=O)c2ccccc21 [Enzastaurin] + Cn1cc(/C=C2\C(=O)Nc3cccnc32)c2ccccc21 [GW441756] (first compound 0.8 µM, partner dose 0.4 µM) | 134% | 28.6% | 84% | 38.4% | 163% | 135% | 116% | 162% |
| N.N.[Cl][Pt][Cl] [cisplatin] + Cc1cc([N+](=O)[O-])ccc1NS(=O)(=O)c1cc(Cl)ccc1Cl [FH535] (first compound 1.6 µM, partner dose 1 µM) | 61.5% | 16.1% | 156% | 118% | 759% | 243% | 437% | 589% |
| CC(=O)c1c(C)c2cnc(Nc3ccc(N4CCNCC4)cn3)nc2n(C2CCCC2)c1=O [palbociclib] + O=C(Oc1ccc([N+](=O)[O-])cc1)N1CCC(C(O)(c2ccc3c(c2)OCO3)c2ccc3c(c2)OCO3)CC1 [JZL184] (first compound 0.04 µM, partner dose 1 µM) | 123% | 38% | 85% | 24.9% | 77.6% | 123% | 111% | 95.3% |
| Cc1cc(Nc2cc(N3CCN(C)CC3)nc(Sc3ccc(NC(=O)C4CC4)cc3)n2)n[nH]1 [Tozasertib] + C/C(O)=C(\C#N)C(=O)Nc1cc(Br)ccc1Br [LFM-A13] (first compound 0.006 µM, partner dose 2 µM) | 60.1% | 13.1% | 48.4% | 21.1% | 201% | 103% | 116% | 85.8% |
| CS(=O)(=O)c1ccc(C(=O)Nc2ccc(Cl)c(-c3ccccn3)c2)c(Cl)c1 [vismodegib] + O=C(Oc1ccc([N+](=O)[O-])cc1)N1CCC(C(O)(c2ccc3c(c2)OCO3)c2ccc3c(c2)OCO3)CC1 [JZL184] (first compound 1 µM, partner dose 1 µM) | 64% | 32.5% | 38.6% | 160% | 160% | 101% | 111% | 278% |
| Cn1cc(C2=C(c3cn(C4CCN(Cc5ccccn5)CC4)c4ccccc34)C(=O)NC2=O)c2ccccc21 [Enzastaurin] + COc1ccc(-c2ccc3c(N4CCOCC4)nc(N4C[C@@H](C)O[C@@H](C)C4)nc3n2)cc1CO [KU0063794] (first compound 0.8 µM, partner dose 0.02 µM) | 70.6% | 28.1% | 41.6% | 169% | 107% | 137% | 55.4% | 81.1% |
| CO[C@H]1C[C@@H]2CC[C@@H](C)[C@@](O)(O2)C(=O)C(=O)N2CCCC[C@H]2C(=O)O[C@H]([C@H](C)C[C@@H]2CC[C@@H](OCCO)[C@H](OC)C2)CC(=O)[C@H](C)/C=C(\C)[C@@H](O)[C@@H](OC)C(=O)[C@H](C)C[C@H](C)/C=C/C=C/C=C/1C [everolimus] + C/C(O)=C(\C#N)C(=O)Nc1cc(Br)ccc1Br [LFM-A13] (first compound 0.02 µM, partner dose 2 µM) | 102% | 12.9% | 115% | 51.1% | 79.3% | 118% | 55.6% | 286% |
| C[C@]12O[C@H](C[C@]1(O)CO)n1c3ccccc3c3c4c(c5c6ccccc6n2c5c31)CNC4=O [Lestaurtinib] + O=C(Nc1ccccc1)c1cc([N+](=O)[O-])ccc1Cl [GW9662] (first compound 0.004 µM, partner dose 2 µM) | 144% | 13.8% | 66.3% | 116% | 63.1% | 99.1% | 59.1% | 122% |
| Cn1cc(C2=C(c3cn(C4CCN(Cc5ccccn5)CC4)c4ccccc34)C(=O)NC2=O)c2ccccc21 [Enzastaurin] + Cc1cc(SCc2sc(-c3ccc(C(F)(F)F)c(F)c3)nc2C)ccc1OCC(=O)O [GW0742] (first compound 0.8 µM, partner dose 2 µM) | 76.9% | 37.6% | 35.6% | 78.2% | 317% | 109% | 50.6% | 172% |
| C[C@@H](Oc1cc(-c2cnn(C3CCNCC3)c2)cnc1N)c1c(Cl)ccc(F)c1Cl [Crizotinib] + O=C(Oc1ccc([N+](=O)[O-])cc1)N1CCC(C(O)(c2ccc3c(c2)OCO3)c2ccc3c(c2)OCO3)CC1 [JZL184] (first compound 0.2 µM, partner dose 1 µM) | 71.4% | 28.6% | 29.9% | 90.2% | 183% | 151% | 75.3% | 98.5% |
| CCCS(=O)(=O)Nc1ccc(F)c(C(=O)c2c[nH]c3ncc(Cl)cc23)c1F + O=C(Oc1ccc([N+](=O)[O-])cc1)N1CCC(C(O)(c2ccc3c(c2)OCO3)c2ccc3c(c2)OCO3)CC1 [JZL184] (first compound 0.08 µM, partner dose 1 µM) | 70.3% | 31.1% | 54.7% | 49.3% | 63.4% | 99.3% | 151% | 99.7% |
| CS(=O)(=O)CCNCc1ccc(-c2ccc3ncnc(Nc4ccc(OCc5cccc(F)c5)c(Cl)c4)c3c2)o1 [lapatinib] + Cc1cc(SCc2sc(-c3ccc(C(F)(F)F)c(F)c3)nc2C)ccc1OCC(=O)O [GW0742] (first compound 0.8 µM, partner dose 2 µM) | 71% | 31.4% | 22.5% | 147% | 310% | 110% | 104% | 120% |
| CNC(=O)c1cc(Oc2ccc(NC(=O)Nc3ccc(Cl)c(C(F)(F)F)c3)cc2)ccn1 [sorafenib] + C/C(O)=C(\C#N)C(=O)Nc1cc(Br)ccc1Br [LFM-A13] (first compound 0.4 µM, partner dose 2 µM) | 75.6% | 70.6% | 53.8% | 32.5% | 111% | 95.7% | 72% | 87.4% |
| Nc1nc(F)nc2c1ncn2[C@@H]1O[C@H](CO)[C@@H](O)[C@@H]1O [fludarabine] + C/C(O)=C(\C#N)C(=O)Nc1cc(Br)ccc1Br [LFM-A13] (first compound 0.2 µM, partner dose 2 µM) | 2020% | 38.5% | 43.7% | 157% | 112% | 114% | 108% | 77.7% |
| Cn1cnc2c(F)c(Nc3ccc(Br)cc3Cl)c(C(=O)NOCCO)cc21 [selumetinib] + C/C(O)=C(\C#N)C(=O)Nc1cc(Br)ccc1Br [LFM-A13] (first compound 0.015 µM, partner dose 2 µM) | 142% | 48.4% | 49.4% | 42.2% | 116% | 77.7% | 93.8% | 111% |
| Cn1cc(C2=C(c3cn(C4CCN(Cc5ccccn5)CC4)c4ccccc34)C(=O)NC2=O)c2ccccc21 [Enzastaurin] + O=C(O)C(=O)Nc1sc2c(c1C(=O)O)CCNC2 [TCS401] (first compound 0.8 µM, partner dose 1.66667 µM) | 115% | 46.8% | 324% | 112% | 192% | 93.4% | 35.4% | 76.1% |
| Cc1cc(Nc2cc(N3CCN(C)CC3)nc(/C=C/c3ccccc3)n2)n[nH]1 + O=C(Oc1ccc([N+](=O)[O-])cc1)N1CCC(C(O)(c2ccc3c(c2)OCO3)c2ccc3c(c2)OCO3)CC1 [JZL184] (first compound 0.04 µM, partner dose 1 µM) | 67.3% | 13.8% | 111% | 282% | 143% | 662% | 60.1% | 78.2% |
| Nc1ncn([C@H]2C[C@H](O)[C@@H](CO)O2)c(=O)n1 [decitabine] + Cc1cc(SCc2sc(-c3ccc(C(F)(F)F)c(F)c3)nc2C)ccc1OCC(=O)O [GW0742] (first compound 0.1 µM, partner dose 2 µM) | 148% | 10.9% | 151% | 41.1% | 93.3% | 95.3% | 86.9% | 78.9% |
| NC1(c2ccc(-c3nc4ccn5c(=O)[nH]nc5c4cc3-c3ccccc3)cc2)CCC1 + C/C(O)=C(\C#N)C(=O)Nc1cc(Br)ccc1Br [LFM-A13] (first compound 0.4 µM, partner dose 2 µM) | 34.5% | 28.6% | 333% | 88.5% | 41.3% | 71% | 69.4% | 68.2% |
| CCCCCCCCCCCCCCCCCCOP(=O)([O-])OC1CC[N+](C)(C)CC1 [Perifosine] + O=C(Oc1ccc([N+](=O)[O-])cc1)N1CCC(C(O)(c2ccc3c(c2)OCO3)c2ccc3c(c2)OCO3)CC1 [JZL184] (first compound 0.4 µM, partner dose 1 µM) | 51.3% | 15.5% | 99.7% | 48.8% | 52% | 110% | 29.9% | 73.9% |
| Cn1cc(C2=C(c3cn(C4CCN(Cc5ccccn5)CC4)c4ccccc34)C(=O)NC2=O)c2ccccc21 [Enzastaurin] + CC(C)CCN1c2nc(Nc3cc(F)c(O)c(F)c3)ncc2N(C)C(=O)C1C [BID1870] (first compound 0.8 µM, partner dose 0.2 µM) | 123% | 53.4% | 105% | 142% | 82.6% | 117% | 73.7% | 96% |
| Cn1cc(C2=C(c3cn(C4CCN(Cc5ccccn5)CC4)c4ccccc34)C(=O)NC2=O)c2ccccc21 [Enzastaurin] + COC(=O)c1sccc1S(=O)(=O)Nc1ccc(Nc2ccccc2)cc1OC [GSK0660] (first compound 0.8 µM, partner dose 1 µM) | 125% | 11.3% | 56.4% | 246% | 229% | 119% | 79.7% | 85.8% |

An excerpt of these results, bar-delimited.
Structure (SMILES) | cleaved PARP positive nuclei fraction (501Mel) | cleaved PARP positive nuclei fraction (A101D) | cleaved PARP positive nuclei fraction (A2058) | cleaved PARP positive nuclei fraction (C32) | cleaved PARP positive nuclei fraction (CBRC008) | cleaved PARP positive nuclei fraction (CBRC014) | cleaved PARP positive nuclei fraction (CBRC016) | cleaved PARP positive nuclei fraction (CBRC017)
C[C@]12O[C@H](C[C@]1(O)CO)n1c3ccccc3c3c4c(c5c6ccccc6n2c5c31)CNC4=O [Lestaurtinib] + O=C(Nc1ccccc1)c1cc([N+](=O)[O-])ccc1Cl [GW9662] (first compound 0.004 µM, partner dose 2 µM) | 144% | 13.8% | 66.3% | 116% | 63.1% | 99.1% | 59.1% | 122%
Cn1cc(C2=C(c3cn(C4CCN(Cc5ccccn5)CC4)c4ccccc34)C(=O)NC2=O)c2ccccc21 [Enzastaurin] + Cc1cc(SCc2sc(-c3ccc(C(F)(F)F)c(F)c3)nc2C)ccc1OCC(=O)O [GW0742] (first compound 0.8 µM, partner dose 2 µM) | 76.9% | 37.6% | 35.6% | 78.2% | 317% | 109% | 50.6% | 172%
